Record: PubChem BioAssay AID652272 (Drosophila RNAi Screening Center, 2013)

- Test: 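Genome-wide knock-down search for components of Hedgehog signalling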 (primary screen)
- System: Drosophila clone 8 (Cl8) cells
- Knock-down reagent: long dsRNA against Drosophila genes
- Measurement: 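Firefly light from a Hedgehog-responsive ptc promoter reporter and Renilla reference light, both read on a plate reader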
- Scale: firefly Hh reporter signal: higher = more ptc reporter light; Renilla reference signal: higher = more Renilla control light
- Hit rule: 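Called a hit if the two-replicate mean z-score lies below -2 or above +3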
- Meaning of the calls: active = hit: reporter lowered or raised; inactive = not a hit
The screen tested about 21,000 reagents; this is a random part of those that have a named target and a result. Of all reagents, 503 (2.4%) got an active call. 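Raw plate light values, not normalised; calls rest on replicate z-scores that were not deposited; hits include reporter decreases as well as increases.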 Unmarked entries are inactive. Reagents against one gene are numbered here. No sequences are given here. Not given: the amount of reagent, the time to read-out.

Which result is listed for CG1785?
firefly Hh reporter signal, replicate 1: 79223; firefly Hh reporter signal, replicate 2: 74605; Renilla reference signal, replicate 1: 2326; Renilla reference signal, replicate 2: 2544

For PIG-T (Phosphatidylinositol glycan anchor biosynthesis class T), how do the results read?
firefly Hh reporter signal, replicate 1: 78761; firefly Hh reporter signal, replicate 2: 1.99e5; Renilla reference signal, replicate 1: 2448; Renilla reference signal, replicate 2: 6770

What is on record for CG32110?
firefly Hh reporter signal, replicate 1: 2.22e5; Renilla reference signal, replicate 1: 4875

Which result is listed for CG3566?
firefly Hh reporter signal, replicate 1: 84780; firefly Hh reporter signal, replicate 2: 2.47e5; Renilla reference signal, replicate 1: 2289; Renilla reference signal, replicate 2: 9552

How did the screen score CG15812?
firefly Hh reporter signal, replicate 1: 85285; firefly Hh reporter signal, replicate 2: 36322; Renilla reference signal, replicate 1: 2168; Renilla reference signal, replicate 2: 1892

For kat-60L1 (katanin p60-like 1), what does the deposit list?
firefly Hh reporter signal, replicate 1: 1.82e5; firefly Hh reporter signal, replicate 2: 1.25e5; Renilla reference signal, replicate 1: 7096; Renilla reference signal, replicate 2: 5175

For Cpr49Ab (Cuticular protein 49Ab), what does the deposit list?
firefly Hh reporter signal, replicate 1: 1.44e5; firefly Hh reporter signal, replicate 2: 2.06e5; Renilla reference signal, replicate 1: 3914; Renilla reference signal, replicate 2: 9203

What is on record for CG13751?
firefly Hh reporter signal, replicate 1: 1.09e5; firefly Hh reporter signal, replicate 2: 66441; Renilla reference signal, replicate 1: 2513; Renilla reference signal, replicate 2: 5517

Laid out differently: entries from further up
| Gene | reagent | firefly Hh reporter signal, replicate 1 | firefly Hh reporter signal, replicate 2 | Renilla reference signal, replicate 1 | Renilla reference signal, replicate 2 |
| --- | --- | --- | --- | --- | --- |
| CG32110 | 1 | 2.22e5 | – | 4875 | – |
| CG3566 | 1 | 84780 | 2.47e5 | 2289 | 9552 |

Continued.
With Mcm6 (Minichromosome maintenance 6), what does the deposit list?
firefly Hh reporter signal, replicate 1: 67797; firefly Hh reporter signal, replicate 2: 47685; Renilla reference signal, replicate 1: 1765; Renilla reference signal, replicate 2: 1002

For CG10936 #1, how do the results read?
firefly Hh reporter signal, replicate 1: 1.28e5; firefly Hh reporter signal, replicate 2: 3.08e5; Renilla reference signal, replicate 1: 3693; Renilla reference signal, replicate 2: 11088

What is on record for CG10936 #2?
firefly Hh reporter signal, replicate 1: 98997; firefly Hh reporter signal, replicate 2: 2.28e5; Renilla reference signal, replicate 1: 3040; Renilla reference signal, replicate 2: 8208

For CG10936 #3, what was measured?
firefly Hh reporter signal, replicate 1: 65575; firefly Hh reporter signal, replicate 2: 40869; Renilla reference signal, replicate 1: 1712; Renilla reference signal, replicate 2: 2745
